Measured values from publication PMC6377664.
These are yes or no findings as the source states them, for the method shown. Binding seen in cells or lysates may run through a third protein. Some entries that bind do so weakly or less than the wild type. For some of these results: Sequences can lack the tags named with a protein.

Protein sequences, listed by entry. Tags and fused reporters are not part of them. Residues count along the entry.
UniProt P49789: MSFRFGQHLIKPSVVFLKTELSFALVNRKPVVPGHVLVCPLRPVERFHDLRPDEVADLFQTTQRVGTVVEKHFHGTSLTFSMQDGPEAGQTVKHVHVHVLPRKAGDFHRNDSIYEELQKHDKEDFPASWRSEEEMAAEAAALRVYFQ
UniProt P61604: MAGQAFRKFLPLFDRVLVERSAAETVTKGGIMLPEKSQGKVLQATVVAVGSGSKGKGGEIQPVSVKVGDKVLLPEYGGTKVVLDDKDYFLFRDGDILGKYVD
UniProt P10809, residues 27-573: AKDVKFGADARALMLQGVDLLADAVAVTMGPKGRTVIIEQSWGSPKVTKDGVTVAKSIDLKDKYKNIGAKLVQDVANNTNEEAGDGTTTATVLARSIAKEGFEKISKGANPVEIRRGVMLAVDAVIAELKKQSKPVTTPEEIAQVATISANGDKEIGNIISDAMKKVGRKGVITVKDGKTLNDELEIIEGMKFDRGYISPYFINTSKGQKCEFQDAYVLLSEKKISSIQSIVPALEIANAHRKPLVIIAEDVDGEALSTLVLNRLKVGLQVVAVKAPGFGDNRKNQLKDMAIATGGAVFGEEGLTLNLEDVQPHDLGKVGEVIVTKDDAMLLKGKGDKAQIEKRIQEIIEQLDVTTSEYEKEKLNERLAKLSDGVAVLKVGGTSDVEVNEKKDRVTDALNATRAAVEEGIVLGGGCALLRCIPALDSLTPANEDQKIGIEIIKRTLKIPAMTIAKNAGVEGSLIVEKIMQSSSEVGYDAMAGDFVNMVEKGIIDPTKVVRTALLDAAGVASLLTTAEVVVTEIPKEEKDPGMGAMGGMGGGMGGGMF

Tests used:
[1] = target: Fhit, induced in H1299D1 cells (human) (UniProt P49789); assay: co-IP; lysates (1 mg total protein) of DSP cross-linked H1299D1 cells (PonA induced) or HCT116 cells; IP with anti-Fhit antiserum on protein A/G resin overnight at 4 °C, TBST washes; blots for HSP60, Fhit, HSP10
[2] = target: Fhit, endogenous in HCT116 (human (endogenous in HCT116)) (UniProt P49789); assay: as above
GST-Fhit (human) = GST-Fhit (human) (UniProt P49789); assay: pull-down; 150 ug GST or GST-Fhit bound to glutathione agarose; lysate of H1299D1 cells transfected with HA-FDXR added, 4 °C overnight; washed five times in 1:1 TBS/RIPA; blots with antisera against HA, HSP60 and Fhit; only the target purified
[3] = target: Fhit, endogenous in HCT116 (human (endogenous in HCT116)) (UniProt P49789); assay: proximity ligation; Duolink in situ PLA in HCT116 cells fixed with 4% paraformaldehyde and permeabilised with 0.5% Triton X-100; rabbit anti-Fhit and mouse anti-Fdxr; single-antibody controls

Row | Molecule | binding [1] | binding [2] | binding (GST-Fhit (human)) | other results
1 | HSP10, endogenous in H1299D1 (from UniProt P61604 1-102) | binds | – | – | –
2 | HSP10, endogenous in HCT116 (from UniProt P61604 1-102) | – | binds | – | –
3 | HSP60, endogenous in H1299D1 (from UniProt P10809-1 27-573) | binds | – | binds | –
4 | HSP60, endogenous in HCT116 (from UniProt P10809-1 27-573) | – | binds | – | –
5 | Ferredoxin reductase (Fdxr), endogenous in HCT116 (protein, UniProt P22570 33-491) STQEKTPQICVVGSGPAGFYTAQHLLKHPQAHVDIYEKQPVPFGLVRFGVAPDHPEVKNVINTFTQTAHSGRCAFWGNVEVGRDVTVPELREAYHAVVLSYGAEDHRALEIPGEELPGVCSARAFVGWYNGLPENQELEPDLSCDTAVILGQGNVALDVARILLTPPEHLERTDITKAALGVLRQSRVKTVWLVGRRGPLQVAFTIKELREMIQLPGARPILDPVDFLGLQDKIKEVPRPRKRLTELLLRTATEKPGPAEAARQASASRAWGLRFFRSPQQVLPSPDGRRAAGVRLAVTRLEGVDEATRAVPTGDMEDLPCGLVLSSIGYKSRPVDPSVPFDSKLGVIPNVEGRVMDVPGLYCSGWVKRGPTGVIATTMTDSFLTGQMLLQDLKAGLLPSGPRPGYAAIQALLSSRGVRPVSFSDWEKLDAEEVARGQGTGKPREKLVDPQEMLRLLGH | – | – | – | binding [3]: binds
6 | HA-FDXR (protein, UniProt P22570 33-491) STQEKTPQICVVGSGPAGFYTAQHLLKHPQAHVDIYEKQPVPFGLVRFGVAPDHPEVKNVINTFTQTAHSGRCAFWGNVEVGRDVTVPELREAYHAVVLSYGAEDHRALEIPGEELPGVCSARAFVGWYNGLPENQELEPDLSCDTAVILGQGNVALDVARILLTPPEHLERTDITKAALGVLRQSRVKTVWLVGRRGPLQVAFTIKELREMIQLPGARPILDPVDFLGLQDKIKEVPRPRKRLTELLLRTATEKPGPAEAARQASASRAWGLRFFRSPQQVLPSPDGRRAAGVRLAVTRLEGVDEATRAVPTGDMEDLPCGLVLSSIGYKSRPVDPSVPFDSKLGVIPNVEGRVMDVPGLYCSGWVKRGPTGVIATTMTDSFLTGQMLLQDLKAGLLPSGPRPGYAAIQALLSSRGVRPVSFSDWEKLDAEEVARGQGTGKPREKLVDPQEMLRLLGH | – | – | binds | –
